The target in experiment [1] is T1, human gp39 (CD40 ligand), cell-surface (human, UniProt P29965 1-261).
T1 construct: whole, on cells; also called CD154; mgp39
T1 sequence (looked up): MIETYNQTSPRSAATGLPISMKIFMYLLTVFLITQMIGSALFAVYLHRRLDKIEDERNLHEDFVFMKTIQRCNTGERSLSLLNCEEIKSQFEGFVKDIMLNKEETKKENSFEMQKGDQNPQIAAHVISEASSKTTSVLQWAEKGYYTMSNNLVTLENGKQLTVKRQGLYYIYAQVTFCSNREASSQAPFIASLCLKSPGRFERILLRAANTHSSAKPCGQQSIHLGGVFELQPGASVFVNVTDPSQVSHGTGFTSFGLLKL
The experiment in a line: competition cell ELISA on fixed mgp39-CHO cells; competitor biotin-labelled murine 24-31.

Experiment [2] addresses T1, human gp39 (CD40 ligand), cell-surface. The experiment is described as follows: cell ELISA on fixed mgp39-CHO cells. A general note: An ELISA detects its analyte on a solid surface through an enzyme-linked reagent.
Experiment [3] has the same target. The experiment in a line: binding to CHO-gp39 transfectant.

Results are given in words; binding and its absence hold for the method and conditions named. Some entries that bind do so weakly or less than the wild type.

B1: chimeric 24-31 antibody (antibody, V domains shown)
VH: EVQLQESGPSLVKPSQTLSLTCSVTGDSITNGFWIWIRKFPGNKLEYMGYISYSGSTYYNPSLKSRISITRDTSQNQFYLQLNSVTTEDTGTYYCACRSYGRTPYYFDFWGQGTTLTVSS
VL: DIVMTQSQKFMSTSVGDRVSITCKASQNVITAVAWYQQKPGQSPKLLIYSASNRYTGVPDRFSGSGSGTDFTLTISNMQSEDLADYFCQQYNSYPYTFGGGTKLEIK
Take B1: the binding entry in experiment [1], in experiment [2] and in experiment [3] was “binds” in each case.

B2: murine antibody 24-31 (anti-human gp39 monoclonal antibody) (antibody, V domains shown)
VH: B1 VH
VL: B1 VL
notes: also called murine 24-31; anti-gp39 24-31 mAb
As for B2, the binding result in experiment [1] and in experiment [2] was “binds” each time.

The values are drawn from patent publication WO2001094586A2 (dated 2001).
